# Measurements reported in the supplement of paper PMC4683952.
# Where a name gives a salt, the structure may show the parent alone. The whole screen tested about 1,200 compounds, of which about 50 (4%) showed activity. Cut-off read from the data, not from the text of the source: all actives reach 1.3 or more but so do some inactives. This is one part of the list.
# Tested on: Lgr5 (MarsCy1-Lgr5-EGFP, U2OS)
# Test: cell-surface Lgr5 expression (SCi1 fluorescence, background-subtracted) relative to WT DMSO (fold of DMSO control); higher = more Lgr5 at the plasma membrane, active = hit call of the paper
# Conditions: U2OS MarsCy1-Lgr5-EGFP stable; treatment time: overnight; 16 µM; library: Johns Hopkins Clinical Compound Library
row,Structure (SMILES),cell-surface Lgr5 expression
1,O=C(O)CCc1nc2ccccc2[nH]1 [Procodazole (2-Benzimidazolepropionic acid)],inactive: 0.763
2,C=C(NC(=O)C(=C)NC(=O)c1csc(C2=N[C@@H]3c4csc(n4)[C@H]4NC(=O)c5csc(n5)[C@H]([C@](C)(O)[C@@H](C)O)NC(=O)[C@H]5CSC(=N5)/C(=C/C)NC(=O)[C@H]([C@@H](C)O)NC(=O)c5csc(n5)[C@]3(CC2)NC(=O)[C@H](C)NC(=O)C(=C)NC(=O)[C@H](C)NC(=O)[C@H]([C@@H](C)CC)N[C@@H]2C=Cc3c([C@H](C)O)cc(nc3[C@H]2O)C(=O)O[C@@H]4C)n1)C(N)=O [Thiostrepton],inactive: 1.27
3,Nc1nccs1 [Aminothiazole (2-aminothiazole)],inactive: 0.92
4,NC(=O)c1cccnc1 [Niacinamide hydrochloride],inactive: 1.05
5,Nc1c(N=Nc2ccc([N+](=O)[O-])cc2)c(S(=O)(=O)O)cc2cc(S(=O)(=O)O)c(N=Nc3ccccc3)c(O)c12 [Napthol blue black],inactive: 0.637
6,CC(C)(Oc1ccc(C2CC2(Cl)Cl)cc1)C(=O)O (stereo not drawn) [Ciprofibrate],inactive: 1.25
7,CCn1cc(C(=O)O)c(=O)c2cc(F)c(N3CCNCC3)cc21 [Norfloxacin],inactive: 1.21
8,O=C(c1ccc(OCCN2CCCCC2)cc1)c1c(-c2ccc(O)cc2)sc2cc(O)ccc12 [Raloxifene hydrochloride],inactive: 0.648
9,O=P([O-])([O-])[O-].[Fe+3] [Ferric phosphate],inactive: 0.912
10,NS(=O)(=O)c1cc2c(cc1C(F)(F)F)NC(Cc1ccccc1)NS2(=O)=O (stereo not drawn) [Bendroflumethiazide],inactive: 1.02
11,S=P(N1CC1)(N1CC1)N1CC1 [Thiotepa (Triethylenethiophosphoramide)],inactive: 1.19
12,COc1cc(N)c(Cl)cc1C(=O)NC1CCN(Cc2ccccc2)CC1 [Clebopride],inactive: 1.08
13,Nc1nc(N)nc(-c2cc(Cl)ccc2Cl)n1 [Irsogladine maleate],inactive: 1.11
14,c1ccc(Cc2nc3ccccc3[nH]2)cc1 [Bendazol (2-Benzylbenzimidazole)],inactive: 1.05
15,COc1c(O)cc2c(c1O)[C@@H]1O[C@H](CO)[C@@H](O)[C@H](O)[C@H]1OC2=O [Bergenin monohydrate],inactive: 1.27
16,COc1ccccc1OCCNCC(O)COc1cccc2[nH]c3ccccc3c12 (stereo not drawn) [Carvedilol],inactive: 1.2
17,O=C(O)c1cc(S(=O)(=O)O)ccc1O [Sulfosalicylic acid (5-Sulfosalicylic acid dihydrate)],inactive: 1.11
18,O=C(NCC1CCCCN1)c1cc(OCC(F)(F)F)ccc1OCC(F)(F)F (stereo not drawn) [Flecainide],inactive: 1.21
19,COC(=O)Nc1nc2cc(C(=O)c3ccc(F)cc3)ccc2[nH]1 [Flubendazole],inactive: 0.859
20,O=C(O[C@@H]1C[C@@H]2C[C@H]3C[C@H](C1)N2CC3=O)c1c[nH]c2ccccc12 [Dolasetron mesylate (Anzamet)],inactive: 0.948
21,O=S(=O)([O-])[O-].[Zn+2] [Zinc sulfate],inactive: 0.625

# As a short view, part of the list above:
row,Structure (SMILES),cell-surface Lgr5 expression
5,Nc1c(N=Nc2ccc([N+](=O)[O-])cc2)c(S(=O)(=O)O)cc2cc(S(=O)(=O)O)c(N=Nc3ccccc3)c(O)c12 [Napthol blue black],inactive: 0.637
6,CC(C)(Oc1ccc(C2CC2(Cl)Cl)cc1)C(=O)O (stereo not drawn) [Ciprofibrate],inactive: 1.25
7,CCn1cc(C(=O)O)c(=O)c2cc(F)c(N3CCNCC3)cc21 [Norfloxacin],inactive: 1.21
8,O=C(c1ccc(OCCN2CCCCC2)cc1)c1c(-c2ccc(O)cc2)sc2cc(O)ccc12 [Raloxifene hydrochloride],inactive: 0.648
9,O=P([O-])([O-])[O-].[Fe+3] [Ferric phosphate],inactive: 0.912

# Carrying on:

row,Structure (SMILES),cell-surface Lgr5 expression
1,CCCCCCCC/C=C\CCCCCCCC(=O)O [Oleic acid (cis-9-Octadecenoic acid)],inactive: 0.862
2,CC(C)(C)NCC(O)c1ccc(O)c(CO)c1 (stereo not drawn) [Albuterol (Salbutamol)],inactive: 1.22
3,N.O.O=P([O-])([O-])O.[Mg+2] [Ammonium magnesium phosphate hydrate],inactive: 1.04
4,Cn1c(=O)c2c(ncn2C)n(C)c1=O [Caffeine citrate],inactive: 0.554
5,Cn1c(=O)c2c(ncn2C)n(C)c1=O [Caffeine-sodium benzoate],inactive: 0.583
6,CN[C@@H]1CCc2[nH]c3ccc(C(N)=O)cc3c2C1 [Frovatriptan succinate],inactive: 0.445
7,CN(C)CCCC1(c2ccc(F)cc2)OCc2cc(C#N)ccc21 (stereo not drawn) [Citalopram],inactive: 0.474
8,CCCC(CCC)C(=O)O [Valproic acid (2-propylpentanoic acid)],inactive: 0.932
9,Cc1cc(N)c2ccccc2c1O [Vitamin K5 hydrochloride],inactive: 0.778
10,Cc1onc(-c2ccccc2)c1C(=O)N[C@@H]1C(=O)N2[C@@H]1SC(C)(C)[C@@H]2C(=O)O [Oxacillin],inactive: 0.726
11,OCC(O)CN1CCN(c2ccccc2)CC1 (stereo not drawn) [Dropropizine],inactive: 1.14
12,CN(C)CCC(c1ccc(Cl)cc1)c1ccccn1 (stereo not drawn) [Chlorpheniramine],inactive: 1.18
13,C=C1c2c(Cl)ccc(O)c2C(=O)C2=C(O)[C@]3(O)C(=O)C(C(N)=O)=C(O)[C@@H](N(C)C)[C@@H]3[C@@H](O)[C@H]12 [Meclocycline],inactive: 0.772
14,COC1=CC(=O)C[C@@H](C)[C@]12Oc1c(Cl)c(OC)cc(OC)c1C2=O [Griseofulvin],inactive: 0.802
15,Oc1cccc(O)c1O [Pyrogallol],inactive: 1.15
16,NCCc1cc[nH]n1 [Betazole],inactive: 1.05
17,NCCC(O)(P(=O)(O)O)P(=O)(O)O [Pamidronate disodium],inactive: 0.683
18,CN(C)CCN(Cc1ccc(Cl)cc1)c1ccccn1 [Chloropyramine],inactive: 1.27
19,NS(=O)(=O)Cc1noc2ccccc12 [Zonisamide],inactive: 1.07
20,Cc1ccc(C)c(OCCCC(C)(C)C(=O)O)c1 [Gemfibrozil],inactive: 1.02
21,NC(=O)c1ccc[n+]([C@@H]2O[C@H](COP(=O)([O-])OP(=O)(O)OC[C@H]3O[C@@H](n4cnc5c(N)ncnc54)[C@H](O)[C@@H]3O)[C@@H](O)[C@H]2O)c1 [Nadide (beta nicotinamide adenine dinucleotide phosphate)],inactive: 1.08

row,Structure (SMILES),cell-surface Lgr5 expression
1,Cc1cc2c(OCC(CNC(C)(C)C)OC(=O)c3ccccc3)cccc2[nH]1 (stereo not drawn) [Bopindolol Maleate],inactive: 1.3
2,O=C(O)C(O)C(O)C(=O)O [Tartaric acid L-(+)],inactive: 1.1
3,NC(=O)OCC(O)COc1ccc(Cl)cc1 (stereo not drawn) [Chlorphenesin carbamate],inactive: 1.01
4,COC(=O)CCc1ccc(OCC(O)CNC(C)C)cc1 (stereo not drawn) [Esmolol],inactive: 1.29
5,C[C@]12CCC(=O)C=C1C=C[C@@H]1[C@@H]2CC[C@@]2(C)[C@H]1CC[C@@]21CCC(=O)O1 [Canrenone],inactive: 1.31
6,O=C(O)c1ccc(NC(=O)[C@H](Cc2ccc(O)cc2)NC(=O)c2ccccc2)cc1,inactive: 1.04
7,CN(C)CC[C@@H](c1ccc(Br)cc1)c1ccccn1 (racemic) [Brompheniramine (+/-)-],inactive: 1.15
8,[F-].[Na+] [Sodium fluoride],inactive: 0.593
9,CC1(C)S[C@@H]2[C@H](NC(=O)COc3ccccc3)C(=O)N2[C@H]1C(=O)O,inactive: 0.694
10,CC1(C)S[C@@H]2[C@H](NC(=O)COc3ccccc3)C(=O)N2[C@H]1C(=O)O [Penicillin V (phenoxymethyl penicillinic acid)],inactive: 1.08
11,Cc1nnc(SCC2=C(C(=O)O)N3C(=O)[C@@H](NC(=O)Cn4cnnn4)[C@H]3SC2)s1 [Cefazolin],inactive: 1.16
12,c1ccc2c(c1)ccc1ccccc12 [Phenanthrene],inactive: 1.28
13,O=c1[nH]c(=O)n([C@H]2C[C@H](O)[C@@H](CO)O2)cc1C(F)(F)F [Trifluridine],inactive: 0.463
14,Cc1cc2nc3c(=O)[nH]c(=O)nc-3n(C[C@H](O)[C@H](O)[C@H](O)COP(=O)(O)OP(=O)(O)OC[C@H]3O[C@@H](n4cnc5c(N)ncnc54)[C@H](O)[C@@H]3O)c2cc1C [Flavin adenine dinucleotide],inactive: 1.01
15,S=c1[nH]cnc2nc[nH]c12 [6-Mercaptopurine monohydrate],active: 1.67
16,C=N[C@@H](C(=O)N[C@@H]1C(=O)N2[C@@H]1SC(C)(C)[C@@H]2C(=O)O)c1ccccc1 [Metampicillin],inactive: 0.953
17,Cc1cccc(Nc2ccncc2S(=O)(=O)NC(=O)NC(C)C)c1 [Torsemide],inactive: 1.04
18,COc1cc2c(cc1OC)-c1c/c(=N\c3c(C)cc(C)cc3C)n(C)c(=O)n1CC2 [Trequinsin hydrochloride],inactive: 0.962
19,NC1=NCC2c3ccccc3Cc3ccccc3N12 (stereo not drawn) [Epinastine hydrochloride],inactive: 1.1
20,CC(C)Cn1cnc2c(N)nc3ccccc3c21 [Imiquimod],inactive: 1.06
21,"CC[C@H](C)[C@H](NC(=O)CN)C(=O)N[C@H](C(=O)N[C@@H](CCC(=O)O)C(=O)N[C@@H](CCC(N)=O)C(=O)N[C@H]1CSSC[C@@H]2NC(=O)[C@H](C(C)C)NC(=O)[C@H](CO)NC(=O)[C@H](C)NC(=O)[C@H](CSSC[C@H](NC(=O)[C@H](CC(C)C)NC(=O)[C@H](Cc3cnc[nH]3)NC(=O)[C@H](CCC(N)=O)NC(=O)[C@H](CC(N)=O)NC(=O)[C@@H](NC(=O)[C@@H](N)Cc3ccccc3)C(C)C)C(=O)NCC(=O)N[C@@H](CO)C(=O)N[C@@H](Cc3cnc[nH]3)C(=O)N[C@@H](CC(C)C)C(=O)N[C@@H](C(C)C)C(=O)N[C@@H](CCC(=O)O)C(=O)N[C@@H](C)C(=O)N[C@@H](CC(C)C)C(=O)N[C@@H](Cc3ccc(O)cc3)C(=O)N[C@@H](CC(C)C)C(=O)N[C@@H](C(C)C)C(=O)N[C@H](C(=O)NCC(=O)N[C@@H](CCC(=O)O)C(=O)N[C@@H](CCCNC(=N)N)C(=O)NCC(=O)N[C@@H](Cc3ccccc3)C(=O)N[C@@H](Cc3ccccc3)C(=O)N[C@@H](Cc3ccc(O)cc3)C(=O)N[C@H](C(=O)N3CCC[C@H]3C(=O)N[C@@H](CCCCN)C(=O)N[C@@H](C)C(=O)O)[C@@H](C)O)CSSC[C@@H](C(=O)N[C@@H](CC(N)=O)C(=O)O)NC(=O)[C@H](Cc3ccc(O)cc3)NC(=O)[C@H](CC(N)=O)NC(=O)[C@H](CCC(=O)O)NC(=O)[C@H](CC(C)C)NC(=O)[C@H](CCC(N)=O)NC(=O)[C@H](Cc3ccc(O)cc3)NC(=O)[C@H](CC(C)C)NC(=O)[C@H](CO)NC2=O)NC1=O)C(C)C [Regular iletin II (Insulin injection, USP Purified pork)]",inactive: 0.953
